Measured values taken from publication PMC6029430.
These are yes or no findings as the source states them, for the method shown. Binding seen in cells or lysates may run through a third protein. Some binding calls cover weakened binding; strength is not graded here.

Target: bZIP63 (Arabidopsis) (UniProt B9DGI8)
Assay: split reporter; BiFC with YFP halves, co-bombardment of N. benthamiana leaves, confocal imaging 24-48 h after bombardment, DAPI counterstain

- binding: binds
B1: bZIP63 (protein, UniProt B9DGI8 1-314)
chain: MEKVFSDEEISGNHHWSVNGMTSLNRSASEWAFNRFIQESSAAADDGESTTACGVSVSSPPNVPVDSEEYRAFLKSKLNLACAAVAMKRGTFIKPQDTSGRSDNGGANESEQASLASSKATPMMSSAITSGSELSGDEEEADGETNMNPTNVKRVKRMLSNRESARRSRRRKQAHLSELETQVSQLRVENSKLMKGLTDVTQTFNDASVENRVLKANIETLRAKVKMAEETVKRLTGFNPMFHNMPQIVSTVSLPSETSNSPDTTSSQVTTPEIISSGNKGKALIGCKMNRTASMRRVESLEHLQKRIRSVGDQ
